Measurements: article PMC2808332

Chains of the proteins cited; added tags and fusions are not shown. Lines headed by an entry give the natural chain unless they say otherwise; changes in a name come on top.
UniProt Q9UM73: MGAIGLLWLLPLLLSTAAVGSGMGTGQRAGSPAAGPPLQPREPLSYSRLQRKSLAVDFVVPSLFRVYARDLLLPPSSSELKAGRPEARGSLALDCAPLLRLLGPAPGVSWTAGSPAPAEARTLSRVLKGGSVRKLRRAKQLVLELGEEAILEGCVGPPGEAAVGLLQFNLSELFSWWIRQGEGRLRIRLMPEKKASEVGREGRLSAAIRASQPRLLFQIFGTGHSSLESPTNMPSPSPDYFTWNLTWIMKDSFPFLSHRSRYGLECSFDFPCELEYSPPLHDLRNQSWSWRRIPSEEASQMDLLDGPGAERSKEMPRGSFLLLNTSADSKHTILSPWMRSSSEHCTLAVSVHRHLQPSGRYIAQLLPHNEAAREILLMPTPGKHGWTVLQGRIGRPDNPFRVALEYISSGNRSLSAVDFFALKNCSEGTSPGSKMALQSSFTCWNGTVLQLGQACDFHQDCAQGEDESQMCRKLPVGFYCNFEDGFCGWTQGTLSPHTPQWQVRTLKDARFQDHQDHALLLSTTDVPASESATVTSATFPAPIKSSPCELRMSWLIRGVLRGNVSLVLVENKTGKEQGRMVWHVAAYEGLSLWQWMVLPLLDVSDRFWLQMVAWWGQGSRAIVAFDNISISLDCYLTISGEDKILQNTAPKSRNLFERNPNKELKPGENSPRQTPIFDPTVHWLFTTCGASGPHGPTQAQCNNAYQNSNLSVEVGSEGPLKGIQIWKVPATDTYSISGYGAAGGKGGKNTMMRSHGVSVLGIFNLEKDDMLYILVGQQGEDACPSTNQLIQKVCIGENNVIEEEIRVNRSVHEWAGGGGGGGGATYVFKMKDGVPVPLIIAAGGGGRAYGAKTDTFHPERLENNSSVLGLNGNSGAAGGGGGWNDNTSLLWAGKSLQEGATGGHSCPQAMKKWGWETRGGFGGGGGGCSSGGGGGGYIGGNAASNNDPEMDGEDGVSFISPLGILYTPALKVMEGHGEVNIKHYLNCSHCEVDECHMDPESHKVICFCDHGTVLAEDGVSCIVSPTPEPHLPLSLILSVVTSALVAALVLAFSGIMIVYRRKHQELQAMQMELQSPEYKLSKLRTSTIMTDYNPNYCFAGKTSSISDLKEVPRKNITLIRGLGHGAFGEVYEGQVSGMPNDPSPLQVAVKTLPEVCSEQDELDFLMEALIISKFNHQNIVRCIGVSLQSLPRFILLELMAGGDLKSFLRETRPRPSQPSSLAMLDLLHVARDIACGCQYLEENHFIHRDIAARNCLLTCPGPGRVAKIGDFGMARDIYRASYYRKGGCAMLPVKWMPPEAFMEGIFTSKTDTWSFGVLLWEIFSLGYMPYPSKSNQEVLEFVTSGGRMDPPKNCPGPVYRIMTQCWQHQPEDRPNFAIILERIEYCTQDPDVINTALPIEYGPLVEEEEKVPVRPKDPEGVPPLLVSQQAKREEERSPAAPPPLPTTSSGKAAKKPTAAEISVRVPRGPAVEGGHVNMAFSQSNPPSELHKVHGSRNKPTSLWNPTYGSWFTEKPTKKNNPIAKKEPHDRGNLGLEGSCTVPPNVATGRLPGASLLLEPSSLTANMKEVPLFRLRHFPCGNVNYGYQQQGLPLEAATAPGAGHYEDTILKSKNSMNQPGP
UniProt P54764: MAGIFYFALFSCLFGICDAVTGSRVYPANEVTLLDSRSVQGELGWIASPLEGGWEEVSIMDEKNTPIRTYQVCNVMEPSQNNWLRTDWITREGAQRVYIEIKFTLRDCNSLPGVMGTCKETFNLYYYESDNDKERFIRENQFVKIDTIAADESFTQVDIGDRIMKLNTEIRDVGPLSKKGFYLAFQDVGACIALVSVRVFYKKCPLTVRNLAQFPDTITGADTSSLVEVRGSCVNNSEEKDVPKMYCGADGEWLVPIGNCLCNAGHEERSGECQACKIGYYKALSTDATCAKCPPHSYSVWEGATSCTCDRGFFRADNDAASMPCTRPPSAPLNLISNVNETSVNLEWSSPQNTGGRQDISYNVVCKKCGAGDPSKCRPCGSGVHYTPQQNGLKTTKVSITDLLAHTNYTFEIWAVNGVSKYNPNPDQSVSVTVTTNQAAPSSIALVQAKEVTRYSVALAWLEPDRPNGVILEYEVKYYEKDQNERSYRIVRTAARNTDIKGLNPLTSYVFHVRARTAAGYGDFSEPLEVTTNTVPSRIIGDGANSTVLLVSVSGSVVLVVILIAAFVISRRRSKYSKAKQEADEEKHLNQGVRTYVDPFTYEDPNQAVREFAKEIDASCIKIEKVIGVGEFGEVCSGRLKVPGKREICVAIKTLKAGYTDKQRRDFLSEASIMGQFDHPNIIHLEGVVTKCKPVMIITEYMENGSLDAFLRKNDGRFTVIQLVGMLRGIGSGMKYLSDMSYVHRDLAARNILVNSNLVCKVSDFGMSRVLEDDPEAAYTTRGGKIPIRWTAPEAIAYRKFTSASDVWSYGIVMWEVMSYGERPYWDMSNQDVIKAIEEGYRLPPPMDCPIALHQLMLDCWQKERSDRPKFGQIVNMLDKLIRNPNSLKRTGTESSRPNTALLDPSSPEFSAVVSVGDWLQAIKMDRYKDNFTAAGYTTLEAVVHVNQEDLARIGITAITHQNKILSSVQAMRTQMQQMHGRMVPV
UniProt P36888: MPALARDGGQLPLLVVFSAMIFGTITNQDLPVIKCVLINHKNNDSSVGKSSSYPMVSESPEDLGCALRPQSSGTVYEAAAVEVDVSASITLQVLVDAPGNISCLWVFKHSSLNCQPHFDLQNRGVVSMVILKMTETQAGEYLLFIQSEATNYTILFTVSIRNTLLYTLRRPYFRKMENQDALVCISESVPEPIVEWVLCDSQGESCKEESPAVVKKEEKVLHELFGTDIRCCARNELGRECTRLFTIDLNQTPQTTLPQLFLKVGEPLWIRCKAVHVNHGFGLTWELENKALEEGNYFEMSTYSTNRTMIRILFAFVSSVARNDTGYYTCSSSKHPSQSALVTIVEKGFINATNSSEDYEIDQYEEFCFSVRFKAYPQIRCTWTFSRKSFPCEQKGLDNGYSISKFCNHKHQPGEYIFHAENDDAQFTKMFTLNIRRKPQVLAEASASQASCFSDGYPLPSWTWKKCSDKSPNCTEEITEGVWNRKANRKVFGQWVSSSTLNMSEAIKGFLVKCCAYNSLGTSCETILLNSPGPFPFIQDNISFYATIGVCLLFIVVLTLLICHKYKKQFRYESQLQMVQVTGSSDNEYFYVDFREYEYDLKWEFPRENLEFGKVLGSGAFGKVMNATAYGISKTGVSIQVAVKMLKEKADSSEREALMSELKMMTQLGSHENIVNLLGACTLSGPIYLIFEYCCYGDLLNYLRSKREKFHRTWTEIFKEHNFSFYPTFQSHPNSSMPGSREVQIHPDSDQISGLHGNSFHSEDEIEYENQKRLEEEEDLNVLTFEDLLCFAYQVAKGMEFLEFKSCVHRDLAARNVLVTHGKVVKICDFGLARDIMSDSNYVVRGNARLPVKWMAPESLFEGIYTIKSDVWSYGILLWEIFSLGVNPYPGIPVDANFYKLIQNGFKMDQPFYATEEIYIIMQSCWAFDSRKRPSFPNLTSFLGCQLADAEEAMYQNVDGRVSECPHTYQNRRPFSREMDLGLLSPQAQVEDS
UniProt Q01974: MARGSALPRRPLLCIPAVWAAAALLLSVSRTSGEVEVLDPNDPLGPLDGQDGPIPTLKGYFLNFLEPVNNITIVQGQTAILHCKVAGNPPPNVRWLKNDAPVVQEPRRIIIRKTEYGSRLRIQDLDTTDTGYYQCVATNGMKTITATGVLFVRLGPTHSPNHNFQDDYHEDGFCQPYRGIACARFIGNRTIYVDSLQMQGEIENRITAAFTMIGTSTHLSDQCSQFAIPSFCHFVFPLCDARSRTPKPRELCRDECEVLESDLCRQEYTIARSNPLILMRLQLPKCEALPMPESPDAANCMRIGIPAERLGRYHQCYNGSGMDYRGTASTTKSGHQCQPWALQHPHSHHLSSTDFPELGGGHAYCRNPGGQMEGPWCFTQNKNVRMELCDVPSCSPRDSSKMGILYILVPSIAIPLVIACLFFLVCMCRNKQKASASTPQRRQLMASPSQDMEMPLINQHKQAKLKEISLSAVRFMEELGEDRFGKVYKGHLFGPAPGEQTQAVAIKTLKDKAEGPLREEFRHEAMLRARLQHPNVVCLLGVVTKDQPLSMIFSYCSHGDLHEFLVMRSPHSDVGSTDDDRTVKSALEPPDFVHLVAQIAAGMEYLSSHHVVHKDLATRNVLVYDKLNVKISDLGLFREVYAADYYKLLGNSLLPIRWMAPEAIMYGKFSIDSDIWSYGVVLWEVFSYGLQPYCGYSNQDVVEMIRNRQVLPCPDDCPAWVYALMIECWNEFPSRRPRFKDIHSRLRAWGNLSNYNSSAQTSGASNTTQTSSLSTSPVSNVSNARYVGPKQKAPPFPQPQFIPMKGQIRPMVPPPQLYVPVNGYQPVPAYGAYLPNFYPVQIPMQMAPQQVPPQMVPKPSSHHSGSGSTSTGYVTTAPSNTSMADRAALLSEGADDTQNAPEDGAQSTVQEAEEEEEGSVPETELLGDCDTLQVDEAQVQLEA
UniProt P21579: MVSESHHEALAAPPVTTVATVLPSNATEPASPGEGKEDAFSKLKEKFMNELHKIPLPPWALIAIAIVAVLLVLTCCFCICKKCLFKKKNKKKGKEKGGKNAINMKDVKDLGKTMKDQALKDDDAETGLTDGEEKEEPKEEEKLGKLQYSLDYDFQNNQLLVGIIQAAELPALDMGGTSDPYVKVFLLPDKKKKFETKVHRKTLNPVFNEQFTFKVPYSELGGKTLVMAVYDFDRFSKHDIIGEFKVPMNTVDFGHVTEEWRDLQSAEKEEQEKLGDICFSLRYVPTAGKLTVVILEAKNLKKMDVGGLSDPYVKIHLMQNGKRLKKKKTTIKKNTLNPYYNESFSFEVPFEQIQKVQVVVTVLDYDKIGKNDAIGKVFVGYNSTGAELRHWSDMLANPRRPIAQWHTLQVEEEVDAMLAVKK
UniProt Q02763: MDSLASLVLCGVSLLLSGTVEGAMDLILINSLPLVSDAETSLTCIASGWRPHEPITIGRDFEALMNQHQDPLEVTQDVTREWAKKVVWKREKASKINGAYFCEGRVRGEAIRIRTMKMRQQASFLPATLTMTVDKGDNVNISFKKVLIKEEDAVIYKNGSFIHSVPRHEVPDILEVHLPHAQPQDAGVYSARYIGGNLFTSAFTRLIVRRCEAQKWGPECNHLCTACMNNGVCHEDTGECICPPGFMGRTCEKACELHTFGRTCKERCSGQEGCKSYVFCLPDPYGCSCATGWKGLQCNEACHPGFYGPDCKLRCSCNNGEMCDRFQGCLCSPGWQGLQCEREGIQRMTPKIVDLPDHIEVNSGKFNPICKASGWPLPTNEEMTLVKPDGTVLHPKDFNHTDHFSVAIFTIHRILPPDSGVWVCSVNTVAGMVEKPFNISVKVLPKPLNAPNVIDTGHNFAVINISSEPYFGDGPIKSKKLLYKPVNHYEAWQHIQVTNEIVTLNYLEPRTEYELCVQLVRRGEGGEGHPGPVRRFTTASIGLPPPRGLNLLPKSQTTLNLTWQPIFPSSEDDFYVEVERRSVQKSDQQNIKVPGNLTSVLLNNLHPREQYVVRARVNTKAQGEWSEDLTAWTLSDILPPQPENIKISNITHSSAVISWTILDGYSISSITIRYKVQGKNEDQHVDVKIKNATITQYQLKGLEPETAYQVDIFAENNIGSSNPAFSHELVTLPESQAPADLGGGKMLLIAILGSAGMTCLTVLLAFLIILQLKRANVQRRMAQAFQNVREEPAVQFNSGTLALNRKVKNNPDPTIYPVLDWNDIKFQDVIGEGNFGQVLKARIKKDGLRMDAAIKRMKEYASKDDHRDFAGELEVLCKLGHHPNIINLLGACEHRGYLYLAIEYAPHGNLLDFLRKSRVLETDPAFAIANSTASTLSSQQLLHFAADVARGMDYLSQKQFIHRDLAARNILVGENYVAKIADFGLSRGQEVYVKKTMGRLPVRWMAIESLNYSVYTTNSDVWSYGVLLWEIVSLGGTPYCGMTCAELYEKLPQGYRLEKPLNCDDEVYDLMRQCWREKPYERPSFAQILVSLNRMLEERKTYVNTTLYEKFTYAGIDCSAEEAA
UniProt Q8WWU5: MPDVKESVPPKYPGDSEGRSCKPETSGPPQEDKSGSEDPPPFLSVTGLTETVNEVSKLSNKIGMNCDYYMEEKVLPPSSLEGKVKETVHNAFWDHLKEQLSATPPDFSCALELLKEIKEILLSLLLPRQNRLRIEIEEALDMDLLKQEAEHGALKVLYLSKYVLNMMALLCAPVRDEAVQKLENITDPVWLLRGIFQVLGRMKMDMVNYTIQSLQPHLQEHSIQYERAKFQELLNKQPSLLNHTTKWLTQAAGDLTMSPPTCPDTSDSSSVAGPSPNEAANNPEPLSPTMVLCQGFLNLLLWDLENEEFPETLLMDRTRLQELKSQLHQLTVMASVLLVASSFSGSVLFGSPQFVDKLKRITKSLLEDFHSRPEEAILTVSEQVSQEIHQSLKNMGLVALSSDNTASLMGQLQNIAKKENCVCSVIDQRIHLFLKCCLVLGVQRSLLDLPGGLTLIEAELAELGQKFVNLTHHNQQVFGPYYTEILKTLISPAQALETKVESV

How the values were obtained:
Test in all cases: peptide or protein array; Invitrogen Protoarray v4.0, about 8,400 human proteins spotted on nitrocellulose-coated glass slides; 10 µg biotinylated tag-free NEMO in 120 µl probing buffer (PBS, 0.5 mM DTT, 5 mM MgCl2, 5% glycerol, 0.05% Triton X-100), 4°C, 1.5 h; bound NEMO detected with labelled streptavidin; hits Z-score > 3, hits of the biotin-GST control array subtracted; both purified
[1] = target: Anaplastic lymphoma receptor tyrosine kinase (human) (UniProt Q9UM73)
[2] = target: Ephrin receptor A4 (human) (UniProt P54764)
[3] = target: FMS-related tyrosine kinase 3 (D835Y mutant) (human) (UniProt P36888)
[4] = target: FMS-related tyrosine kinase 3 (human) (UniProt P36888)
[5] = target: FMS-related tyrosine kinase 4 (human) (UniProt P35916)
[6] = target: RET proto-oncogene (human) (UniProt P07949)
[7] = target: Receptor tyrosine kinase-like orphan receptor 2 (human) (UniProt Q01974)
Synaptotagmin I (human) = Synaptotagmin I (human) (UniProt P21579)
[8] = target: TEK tyrosine kinase (human) (UniProt Q02763)
[9] = target: TYRO3 protein tyrosine kinase (human) (UniProt Q06418)
Tweety homolog 2 (human) = Tweety homolog 2 (human) (UniProt Q9BSA4)
[10] = target: c-Mer proto-oncogene tyrosine kinase (human) (UniProt Q12866)
c-Ros oncogene 1 (human) = c-Ros oncogene 1 (human) (UniProt P08922)
[11] = target: t-complex 11 (mouse) (human) (UniProt Q8WWU5)

Measured: binding

NEMO (NF-κB essential modulator), tag-free, biotinylated (from UniProt Q9Y6K9 1-419)
binds: all assays above

No constants are given. Whether binding was seen depends on the method and setting. Binding calls can cover weak binding; strength is not graded here.
